Measured values taken from publication PMC5620269.
These are yes or no findings as the source states them, for the method shown. In cells and extracts the contact can be indirect. Some entries that bind do so weakly or less than the wild type.

Sequences of proteins named here, by UniProt entry; tags and fusion partners are left off.
UniProt P38936: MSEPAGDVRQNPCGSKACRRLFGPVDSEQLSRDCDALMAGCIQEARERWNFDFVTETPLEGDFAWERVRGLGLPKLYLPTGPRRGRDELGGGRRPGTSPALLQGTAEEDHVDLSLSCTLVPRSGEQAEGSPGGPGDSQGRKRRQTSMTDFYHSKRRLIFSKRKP
UniProt P43365: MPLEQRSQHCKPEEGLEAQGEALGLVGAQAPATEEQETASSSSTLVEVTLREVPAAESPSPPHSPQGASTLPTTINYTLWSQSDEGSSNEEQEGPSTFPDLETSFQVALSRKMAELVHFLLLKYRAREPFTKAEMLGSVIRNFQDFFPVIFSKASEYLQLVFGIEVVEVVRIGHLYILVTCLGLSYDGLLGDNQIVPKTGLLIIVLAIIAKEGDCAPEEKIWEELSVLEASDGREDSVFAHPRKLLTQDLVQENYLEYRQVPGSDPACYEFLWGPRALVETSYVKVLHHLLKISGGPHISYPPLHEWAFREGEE

Target: p21 (Cip1, Waf1, cyclin-dependent kinase inhibitor 1A) (human (endogenous in PPC1)) (UniProt P38936)
Assay: co-IP; PPC1 cells transfected with pcDNA3-HA-MAGE-A12, 48 h; lysis in 1% NP-40 buffer; IP with antibodies to p21 or control rabbit IgG, immunoblot with anti-HA

binding: binds
Substance: HA-tagged MAGE-A12 (from UniProt P43365 1-314)
